No constants are given. Whether binding was seen depends on the method and setting. Binding seen in cells or lysates may run through a third protein. Some results given as binding are weak or reduced against the parent protein; the word gives no strength.

Sequences of proteins named here, by UniProt entry; tags and fusion partners are left off.
UniProt P19785: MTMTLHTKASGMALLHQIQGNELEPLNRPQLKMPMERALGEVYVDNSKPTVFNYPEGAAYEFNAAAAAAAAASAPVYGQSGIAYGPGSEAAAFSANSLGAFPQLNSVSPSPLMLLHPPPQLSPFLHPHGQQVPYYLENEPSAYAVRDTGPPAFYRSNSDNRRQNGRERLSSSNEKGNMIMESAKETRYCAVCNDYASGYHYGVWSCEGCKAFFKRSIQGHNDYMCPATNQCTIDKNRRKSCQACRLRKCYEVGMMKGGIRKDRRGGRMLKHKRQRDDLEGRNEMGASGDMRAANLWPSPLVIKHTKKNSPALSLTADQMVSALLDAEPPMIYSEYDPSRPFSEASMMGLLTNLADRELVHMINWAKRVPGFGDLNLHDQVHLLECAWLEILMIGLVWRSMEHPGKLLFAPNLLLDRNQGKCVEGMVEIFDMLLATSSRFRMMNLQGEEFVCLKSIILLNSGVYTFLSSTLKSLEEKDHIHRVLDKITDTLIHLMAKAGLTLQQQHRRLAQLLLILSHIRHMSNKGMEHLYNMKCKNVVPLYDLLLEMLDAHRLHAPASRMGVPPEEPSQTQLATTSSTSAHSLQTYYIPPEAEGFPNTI

This is an account of results in paper PMC5807548.

For the assay, the target named is ESR1 (mouse (endogenous in uterine tissue)) (UniProt P19785). The assay can be described thus: co-IP; day 4 pregnant mouse uterine tissue homogenised in RIPA buffer (10 mM HEPES, 142.5 mM KCl, 5 mM MgCl2, 1 mM EGTA, 0.5% NP-40, pH 7.5); 2 mg protein with 1 ug specific antibody and Protein G Dynabeads overnight at 4 C; immunoblot. On the technique in general: A western blot detects proteins with antibodies after separation by electrophoresis.

B1: FOXA2 (protein, UniProt P35583 1-459)
chain: MLGAVKMEGHEPSDWSSYYAEPEGYSSVSNMNAGLGMNGMNTYMSMSAAAMGGGSGNMSAGSMNMSSYVGAGMSPSLAGMSPGAGAMAGMSGSAGAAGVAGMGPHLSPSLSPLGGQAAGAMGGLAPYANMNSMSPMYGQAGLSRARDPKTYRRSYTHAKPPYSYISLITMAIQQSPNKMLTLSEIYQWIMDLFPFYRQNQQRWQNSIRHSLSFNDCFLKVPRSPDKPGKGSFWTLHPDSGNMFENGCYLRRQKRFKCEKQLALKEAAGAASSGGKKTAPGSQASQAQLGEAAGSASETPAGTESPHSSASPCQEHKRGGLSELKGAPASALSPPEPAPSPGQQQQAAAHLLGPPHHPGLPPEAHLKPEHHYAFNHPFSINNLMSSEQQHHHSHHHHQPHKMDLKAYEQVMHYPGGYGSPMPGSLAMGPVTNKAGLDASPLAADTSYYQGVYSRPIMNSS
Regarding B1, the binding entry is “binds”.
